Test results as given in patent publication US10112899B2 (ViiV HEALTHCARE UK LIMITED, priority 2014, dated 2018).
pIC50: −log10 of the molar value.

Tested on: HIV in the HTLV-1 transformed cell line MT-4
Experiment: organism not typed
Format: cell-based
Conditions: MT4, 96 h

Cc1ccc(-c2c(C)c3c(c(C)c2[C@H](OC(C)(C)C)C(=O)O)CN(C(=O)c2cccc(F)c2)C3)c(Cl)c1 [Example 326, (2S)-2-(tert-butoxy)-2-(6-(2-chloro-4-methylphenyl)-2-(3-fluorobenzoyl)-4,7-dimethylisoindolin-5-yl)acetic acid]
pIC50: 8.30
